Results are given in words; binding and its absence hold for the method and conditions named. Some results given as binding are weak or reduced against the parent protein; the word gives no strength.
Key:
[1] = target: CD16A (FcgammaRIIIA) on primary human NK-cells (human) (UniProt P08637); assay: flow cytometry titration on primary human NK-cells, 37 C, in presence of 10 mg/mL polyclonal human IgG; detection with BCMA(1-54)-GCN4-His, anti-His mAb, FITC goat anti-mouse IgG
[2] = target: CD16A (FcgammaRIIIA) on primary human NK-cells (human) (UniProt P08637); assay: flow cytometry on primary human NK-cells, tandem diabody against scFv
[3] = target: B-cell maturation antigen (BCMA) on myeloma cell lines (human) (UniProt Q02223); assay: flow cytometry titration on MM.1S cells; detection with CD16A-mFc.67/anti-human-FITC
[4] = target: CD16A (FcgammaRIIIA) on primary human NK-cells (human) (UniProt P08637); assay: flow cytometry on primary human NK-cells (referred to in Example 4)
[5] = target: CD16A (FcgammaRIIIA) on primary human NK-cells (human) (UniProt P08637); assay: flow cytometry titration on primary human NK-cells, 37 C, buffer without IgG; detection with BCMA(1-54)-GCN4-His, anti-His mAb, FITC goat anti-mouse IgG
[6] = target: CD16A (FcgammaRIIIA) on primary human NK-cells (human) (UniProt P08637); assay: flow cytometry on primary human NK-cells (FIG. 4)
[7] = target: B-cell maturation antigen (BCMA) on myeloma cell lines (human) (UniProt Q02223); assay: flow cytometry titration on NCI-H929 cells; detection with CD16A-mFc.67/anti-human-FITC
[8] = target: CD16A (FcgammaRIIIA) on primary human NK-cells (human) (UniProt P08637); assay: dissociation time course by flow cytometry: primary human NK-cells loaded with 50 ug/mL tandem diabody variant 4 on ice, then 37 C in buffer with 10 mg/mL polyclonal human IgG
[9] = target: CD16A (FcgammaRIIIA) on primary human NK-cells (human) (UniProt P08637); assay: dissociation time course by flow cytometry: primary human NK-cells loaded with 50 ug/mL tandem diabody variant 4 on ice, then 37 C in buffer without IgG
[10] = target: CD16A (FcgammaRIIIA) on primary human NK-cells (human) (UniProt P08637); assay: flow cytometry titration on primary human NK-cells, 37 C; detection with BCMA(1-54)-GCN4-His, anti-His mAb, FITC goat anti-mouse IgG

Protein sequences, listed by entry. Tags and fused reporters are not part of them. Lines headed by an entry give the natural chain unless they say otherwise; changes in a name come on top.
UniProt P08637: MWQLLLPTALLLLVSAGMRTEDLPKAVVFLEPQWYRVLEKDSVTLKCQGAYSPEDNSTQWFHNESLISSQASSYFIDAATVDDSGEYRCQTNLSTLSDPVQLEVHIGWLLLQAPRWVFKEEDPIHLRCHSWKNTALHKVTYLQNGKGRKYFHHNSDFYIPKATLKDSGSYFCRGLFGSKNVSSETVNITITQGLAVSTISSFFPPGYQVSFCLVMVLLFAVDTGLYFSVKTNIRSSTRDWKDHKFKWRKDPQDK
UniProt Q02223: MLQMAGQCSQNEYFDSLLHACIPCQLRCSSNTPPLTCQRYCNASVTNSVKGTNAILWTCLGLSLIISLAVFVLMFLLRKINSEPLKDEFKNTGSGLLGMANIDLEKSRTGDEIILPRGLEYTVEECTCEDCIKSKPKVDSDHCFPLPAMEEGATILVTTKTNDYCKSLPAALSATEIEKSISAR

Measured: binding

B1: BCMA/CD16A-directed tandem diabody in variant 4 (bispecific antibody)
chain: QVQLVQSGAEVKTPGEPLKISCKGSGYSFTDSWIGWVRQMPGKGLEWMGIIYAGDSDARYSPSFQGQVTISADTSTSTVYLQWSSLKASDTAMYYCARNFGDHWGQGTLVTVSSGGSGGSGGSGGSSYVLTQPSSVSVAPGQTATISCGGHNIGSKNVHWYQQRPGQSPVLVIYQDNKRPSGIPERFSGSNSGNTATLTISGTQAMDEADYYCQVWDNYSVLFGGGTKLTVLGGSQVQLVQSGAEVKKPGESLKVSCKASGYTFTSYYMHWVRQAPGQGLEWMGAIEPMYGSTSYAQKFQGRVTMTRDTSTSTVYMELSSLRSEDTAVYYCARGSAYYYDFADYWGQGTLVTVSSGGSGGSGGSGGSSYELTQSPSVSVAPGQTARIFCGGDNIGSKNVHWYQQKPGQAPVLVIYRDSNRPSGIPERFSGANSENTATLTISRAQAGDEADYYCQVWDSRTYVFGTGTKLTVL
notes: also called tandem diabody variant 4; Tandem diabody (v4)
binds: all assays above

Source: patent US20220041717A1 (AFFIMED, published 2022)
